From PubChem BioAssay AID1508600 (Functional Genomics Laboratory (NCATS/FGL), 2020)
Hit rate of the full screen: of about 53,000 sequences, about 3,700 (7%) were called active.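 How the source made its calls: active means gene knockdowns whose robust z-score for IL-1 alpha signal is at least 2 or at most -2, so actives lie on both sides; inactive means the rest.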 The list shows a part of the results.

assay: Components of the Cytosolic LPS Sensing Pathway: Gene Identification via Genome-wide siRNA Screen; conditions: RAW264.7 macrophages, IL-1a HTRF, actives lie on both sides, screened at 100 nM (by protocol), cells primed 5 h with Pam3CSK4 first;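 further: robust z of the log signal after scaling to non-targeting control siRNA wells of the plate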
Procedure, shortened: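 Three distinct siRNAs per gene were tested singly at 100 nM in RAW264.7 macrophages. Following Pam3CSK4 priming and 24 hour LipidA transfection, IL-1a secretion was read by HTRF.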

Sequence	z-score
GGACUUGAAGCUGCACCUATT against Atp6v0d1	inactive: -0.343
GGACAUUUUUGUCUCUAAATT against Pacc1	inactive: 0.167
CCCUAUACUCAUUUGUAAGTT against Ube2a	inactive: 0.68
CGUAACAAGCAGGAAGCAATT against Xlr4b	inactive: -0.467
GGAGAGGAUCCAAUGUCUCTT against Ptpn5	inactive: 1.86
GGCUAUACACGCAUCAAGCTT against Dtx1	inactive: 0.667
GCGACAAGACUUCUUGAGCTT against Epha8	inactive: -0.304
CCAAAGCACAGCAAUUAAUTT against Eif3a	inactive: -0.836
CCAAACGGAAGUAUCUUAUTT against Tmem128	inactive: 0.246
GGCCUUCGAAAUAAUUCUGTT against Ppp1r14d	inactive: -0.605
GCAUCGUCUAUAUUUUUGGTT against Timm50	inactive: -1.56
GGACUUCAUGGAAAAUCUGTT against Pofut1	inactive: -0.656
GGAUGAGUCUUUAGAAGAATT against Pramel25	inactive: 0.468
CGAGCUGUCCAAACACUGUTT against Cenpu	inactive: -0.135
CCAUGGGUACCUAUAUCGUTT against Gfod2	inactive: -0.622
GGAUUUGUCUUCUUUUGUCTT against Kif3b	inactive: 1.58
GGUGUGGUACGACAUGUUCTT against Zmat5	inactive: -0.641
GCAUGGAGAUUCUGUGCGGTT against Trim45	inactive: -1.13
GGCAAUUGUACAGGAGAUUTT against Iqcc	inactive: 0.98
GGACAUAAAAAUACGCCAGTT against Hsf1	inactive: -1.38
CGCCGAAAGACAAGAGUAUTT against Tgm3	inactive: -0.847
GGUAUGUUUGCAUCUUUUUTT against Nkain3	inactive: 0.194
GGAGCUCAGAUGCAAUGAGTT against Klf17	inactive: 0.517

Sequence	z-score
GGAGAACAUAAAAAUGGUGTT against Stk39	inactive: -0.0786
GCUUUCUUUUAUGGCACGGTT against Tmem86b	inactive: -0.396
GGAAGGUUCCCUUGAGUUCTT against Bcdin3d	inactive: -0.202
GCGGUCCAGACAGCAAAUATT against Ptbp2	inactive: 0.42
CCACGGAGCAGAUAUGCUGTT against Nprl3	inactive: -1.22
GGCCGUUUCCUACCUCAUGTT against Cckbr	inactive: -1.09
GGAUAGUCUCCUCAAAGAATT against Trmt10b	inactive: 0.7
GGAAAACUUCACUUUCUUCTT against Esyt2	inactive: 0.673
GGACACUAUGCAAUCACCCTT against Rnf216	inactive: -0.481
CCGACCAGAAGCUUUAAAGTT against Msrb1	inactive: 1.05
GGAGUUCCUCAUGAAGAUGTT against Tmem241	inactive: -1.27
GGCUGUCAGAACCAACUACTT against Tshb	inactive: 0.214
CCAUACAUCCGAGAGUUUGTT against Snrnp70	active: 2.37
GCUUUACCUGGAGAAAAUGTT against 4931422A03Rik	inactive: -1.44
GGAGUUUUUGCAUGAAUUGTT against Folh1	inactive: -0.106
GGGAAAAGCUAAAAUACAATT against Gtf2h1	inactive: 1.54
GGUGCUGAGCAAUCUCAAGTT against Slc35a4	inactive: 0.834
GCCCUCUACAACUUUGACCTT against Sh3rf2	inactive: 0.664
GGAAGAAAAAGAGGACACATT against Wnk4	inactive: -0.393
GGACUAUCUCUUUAUGGAATT against Csf1	inactive: -0.0449
CGUCAUGACAAACUUAGGATT against Calm1	inactive: -1.14
GGAUUGUCAUAACAGAAUUTT against Rpe65	inactive: -0.344
CCAAAGCUGAGGUUGUAACTT against Sstr4	inactive: 0.642

3 entries from above, with each value named.
GGAAGGUUCCCUUGAGUUCTT against Bcdin3d
  z-score: inactive: -0.202
GGCUGUCAGAACCAACUACTT against Tshb
  z-score: inactive: 0.214
GGACUAUCUCUUUAUGGAATT against Csf1
  z-score: inactive: -0.0449

Next part.

Sequence	z-score
GGAUUCUGGAGAAUAUGAATT against Tgm5	inactive: 1.03
GGAUCAGAUGUCAGCUUCATT against Stx6	inactive: -1.03
GGUUUUUACAAUCAUGAUGTT against Fer	inactive: -0.692
CCUAUGAUGUAAUGACCCGTT against Slc25a29	inactive: -1.19
GGAUUGGAAGAAAAAGGAGTT against Lair1	inactive: -1.38
GGUCAAAGCAAGAAGAUGATT against Septin9	inactive: -1.34
GGAUCGACUGCCAAGGAAUTT against Klhdc2	inactive: 0.0628
CCAGUGGUUGCUAUGGUCUTT against Nme1	inactive: -0.13
GGCAGAAAAGAUAGCAUCUTT against Cops4	inactive: 0.413
GCAUUGGUAACCAAAUCAUTT against Dram2	inactive: 1.71
GCACAUGCAGACAGUUACCTT against Kiss1r	inactive: 1.37
GGCCUUGAGACUAUCAAUGTT against Emilin3	inactive: 1.1
GGCGACUUUUGCAUCGCUUTT against Spink2	inactive: 1.53
GGCCACAUGAGGAAUGACGTT against Slc20a2	inactive: 1.08
GCCUGAAUUUAGUGUUAAGTT against Hnmt	inactive: 1.72
CCAACGAAGCCAAUAAAUGTT against Pmis2	active: -2.12
GGGCCCGAUGAAGCAAAAATT against Hnrnpr	inactive: -1.49
GCUGUUUUAUCUCCAAUGGTT against Araf	inactive: 1.73
GGACUAUGUCUUUGACAAUTT against Grhl1	inactive: -0.166
GGUCCCUGUAGAAAAACUGTT against Asrgl1	inactive: -0.563
GGCUCCACAAACCUUCCUUTT against D830014E11Rik	inactive: -0.416
GGGUAUCCUUUGGUGGUGUTT against Prss32	inactive: 0.766
